Results published in PubChem BioAssay AID330 (DTP/NCI, 2004).
The list is a part of this screen's results and no random one: it gathers tests that were run many times, whatever their T/C, doses with no T/C, and many T/C values between a quarter and a half above the control. Further doses and runs are listed elsewhere. T/C is the treated group as % of the vehicle group. Some entries give survivors of the animals treated and no T/C: the source holds a T/C of zero for them, seemingly a mark for toxic or unscored doses. Some survivor counts are full or nearly so, which does not show that the dose was tolerated: the source hardly ever lists a survival T/C far under the control, and the zero likely stands for such cases as well. Counts of survivors are from the toxicity check (mostly the fifth day) where no day follows; animals may have died later. Schedules are NCI's codes, read here as Q, the interval in days (D) or hours (H), X, the number of doses. Some doses were run more than once; their values stand side by side, smallest first. Where survival is the endpoint, the PubChem record calls one and a half times the control and up active, and a quarter to a half above the control has no call in these data; cut-offs in other NCI protocols can differ. Some T/C values carry the count of animals alive at the toxicity check (mostly the fifth day); without a count, all were alive then.

Test system: P388 leukemia ip, CD2F1 mice, survival T/C
Experiment: NCI In Vivo Anticancer Drug Screen. Data for tumor model P388 Leukemia (intraperitoneal) in CD2F1 (CDF1) mice
Details: T/C endpoint: median survival time, higher T/C = longer survival
[1] = dose: 200.0 mg/kg/injection, schedule: Q01DX009 (ip), vehicle: Klucel (hydroxypropylcellulose) (HPC)
[2] = dose: 200.0 mg/kg/injection, schedule: Q01DX009 (ip), vehicle: saline
[3] = dose: 50.0 mg/kg/injection, schedule: Q01DX005 (ip), vehicle: Klucel (hydroxypropylcellulose) (HPC)
[4] = dose: 100.0 mg/kg/injection, schedule: Q01DX005 (ip), vehicle: Klucel (hydroxypropylcellulose) (HPC)

O=C1CC(c2ccccc2)C(c2ccccc2)CO1 (centres undefined)
survivor count (dose: 200.0 mg/kg/injection, schedule: Q04DX003 (ip), vehicle: Klucel (hydroxypropylcellulose) (HPC)): 6 of 6

CC1(C)OC(c2ccccc2)=CC1=O
survivor count (dose: 400.0 mg/kg/injection, schedule: Q04DX002 (ip), vehicle: saline with Tween-80): 1 of 6

CCOC(=O)c1cc(Cl)cc2c(=O)c3c(O)c4[nH]c5c(C(=O)OCC)cc(Cl)cc5c(=O)c4c(O)c3[nH]c12
survivor count [1]: 3 of 6

CC1=CC=C(C(=O)C(Br)C(Br)c2ccccc2)C1 (centres undefined)
survivor count (dose: 50.0 mg/kg/injection, schedule: Q01DX009 (ip), vehicle: Klucel (hydroxypropylcellulose) (HPC)): 6 of 6
survivor count (dose: 100.0 mg/kg/injection, schedule: Q01DX009 (ip), vehicle: Klucel (hydroxypropylcellulose) (HPC)): 6 of 6
survivor count [1]: 6 of 6

NC(CCC(=O)NC(CS)C(=O)O)C(=O)O (centres undefined)
survivor count [2]: 0 of 6

CCC[CH2][Sn]1([CH2]CCC)[O]c2ccccc2[O]1
T/C (dose: 3.12 mg/kg/injection, schedule: Q01DX005 (ip), vehicle: saline with Tween-80): 130 % of control
survivor count (dose: 6.25 mg/kg/injection, schedule: Q01DX005 (ip), vehicle: saline with Tween-80): 1 of 6 and 2 of 6
survivor count (dose: 12.5 mg/kg/injection, schedule: Q01DX005 (ip), vehicle: saline with Tween-80): 0 of 6
survivor count (dose: 25.0 mg/kg/injection, schedule: Q01DX005 (ip), vehicle: saline with Tween-80): 0 of 6
survivor count [3]: 4 of 6
survivor count [4]: 1 of 6
survivor count (dose: 200.0 mg/kg/injection, schedule: Q01DX005 (ip), vehicle: Klucel (hydroxypropylcellulose) (HPC)): 0 of 6

COC(=O)c1cc2cc3ccccc3cc2cc1C(=O)OC
survivor count (dose: 60.0 mg/kg/injection, schedule: Q01DX005 (ip), vehicle: saline with Tween-80): 6 of 6
survivor count (dose: 120.0 mg/kg/injection, schedule: Q01DX005 (ip), vehicle: saline with Tween-80): 6 of 6
survivor count (dose: 240.0 mg/kg/injection, schedule: Q01DX005 (ip), vehicle: saline with Tween-80): 6 of 6

O=c1[nH]nc2ccc(n[nH]c1=O)c1ccccc21
survivor count (dose: 100.0 mg/kg/injection, schedule: Q01DX005 (ip), vehicle: saline with Tween-80): 1 of 6
survivor count (dose: 200.0 mg/kg/injection, schedule: Q01DX005 (ip), vehicle: saline with Tween-80): 0 of 6

Nc1cccnc1
survivor count (dose: 50.0 mg/kg/injection, schedule: Q01DX009 (ip), vehicle: saline): 0 of 6
survivor count (dose: 100.0 mg/kg/injection, schedule: Q01DX009 (ip), vehicle: saline): 0 of 6
survivor count [2]: 0 of 6

COc1cc2c(cc1NC(=O)N(CCCl)N=O)-c1ccccc1C2
T/C (dose: 43.25 mg/kg/injection, schedule: Q04DX003 (ip), vehicle: Klucel (hydroxypropylcellulose) (HPC)): 125 % of control
T/C (dose: 86.5 mg/kg/injection, schedule: Q04DX003 (ip), vehicle: Klucel (hydroxypropylcellulose) (HPC)): 144 % of control [5 of 6 alive]
T/C (dose: 175.0 mg/kg/injection, schedule: Q04DX003 (ip), vehicle: Klucel (hydroxypropylcellulose) (HPC)): 144 % of control

CC(=O)C(Cl)C(=O)c1c(C)[nH]n(-c2ccccc2)c1=O (centres undefined)
T/C [3]: 126 % of control
T/C [4]: 126 % of control
T/C (dose: 200.0 mg/kg/injection, schedule: Q01DX005 (ip), vehicle: Klucel (hydroxypropylcellulose) (HPC), evaluated on day 20): 126 % of control [5 of 6 alive]
T/C (dose: 200.0 mg/kg/injection, schedule: Q01DX005 (ip), vehicle: Klucel (hydroxypropylcellulose) (HPC), evaluated on day 30): 145 % of control
survivor count (dose: 400.0 mg/kg/injection, schedule: Q01DX005 (ip), vehicle: Klucel (hydroxypropylcellulose) (HPC)): 1 of 6

C=CC(=O)N/C(N)=N\C(N)=O
survivor count (dose: 25.0 mg/kg/injection, schedule: Q01DX005 (ip), vehicle: saline): 2 of 6
survivor count (dose: 50.0 mg/kg/injection, schedule: Q01DX005 (ip), vehicle: saline): 0 of 6
survivor count (dose: 100.0 mg/kg/injection, schedule: Q01DX005 (ip), vehicle: saline): 0 of 6
survivor count (dose: 200.0 mg/kg/injection, schedule: Q01DX005 (ip), vehicle: saline): 0 of 6
